Reference: patent publication US3956314A, “Derivatives of 2-pyrrolidinone” (U.C.B., Societe Anonyme, priority 1970, dated 1976)
At least one read-out could not be matched to a standard name with certainty.

System: Wistar rats
Experiment: anxiolytic action: shuttle box conditioning test, painful electric shocks, second sequence
Assay type: in vivo
Conditions: half an hour before the second sequence
Method: Wistar rats (weighing 100 g. ± 20 g.) are first permitted to become accustomed, during 10 minutes, to conditioning cages of the shuttle box type, after which they are subjected to a first sequence of 20 painful electric shocks of 3 seconds on their paws repeated every 30 seconds. During this first sequence, the rats ran away before the end of the shock about 15 times out of 20 shocks.
On the other hand, if these same animals are subjected to a sequence of shocks 4 hours later, paradoxically, instead of improving their performance (as in the course of a normal training) a reduction in the number of evasions is found: the animals have become set and are less successful in running away before the end of the shocks. This behavior is attributed to an anxiety state induced by the experimental situation.
Intraperitoneal administration of an anxiolytic substance to the rats, half an hour before the second sequence is carried out, improves their performance (increase in the number of evasions before the end of the shock).
A group of rats, to which a substance to be tested is administered, is compared with a group of control rats, which has been injected with physiological serum under the same conditions.
The activity of a substance tested is expressed by the difference between the number of evasions found in the group of rats, to which a substance to be tested has been administered, and the number of evasions found in the group of control rats, during the second sequence of shocks. Generally, a mean decrease of 4 evasions is found per group of 20 control rats during the second sequence. The compounds tested, which increase the number of evasions found in the control rats by at least 3 evasions, are considered as having an anxiolytic activity. Those compounds, which increase the number of evasions found in the control rats by 2 evasions are potentially active.
In the test the minimum dose is sought which increases the performances of the rats treated in comparison with the control rats.
In the following Table there is shown in the first column the compound tested; in the second column, the dose administered (in mole per kg animal body weight) and in the third column the improvement in the performance (i.e. the difference between the number of evasions found in the treated rats and the number of evasions found in the control rats during the second sequence of shocks).

SMILES	Improvement in the performance (difference between number of evasions in treated and control rats, second sequence of shocks) (dose 0.10, intraperitoneal)	other results
CC1C(=O)NCC1c1ccc(Cl)cc1 [C, 4-p-chlorophenyl-3-methyl-2-pyrrolidinone (cis isomer)]	+5 evasions	–
CC1C(=O)NCC1c1ccc(Cl)cc1 [Compound D, 4-p-chlorophenyl-3-methyl-2-pyrrolidinone (trans isomer)]	–	Improvement in the performance (difference between number of evasions in treated and control rats, second sequence of shocks) (dose 0.056, intraperitoneal): +3 evasions
CC1C(=O)NCC1c1ccc(F)cc1 (stereo not drawn) [H, 4-p-fluorophenyl-3-methyl-2-pyrrolidinone]	+2 evasions	–
CNC1=Nc2ccc(Cl)cc2C(c2ccccc2)=[N+]([O-])C1 [S, 7-chloro-2-methylamino-5-phenyl-3H-1,4-benzodiazepine-4-oxide, reference compound]	–	Improvement in the performance (difference between number of evasions in treated and control rats, second sequence of shocks) (dose 0.01, intraperitoneal): +3 evasions
O=C1CC(c2ccc(Cl)cc2)CN1 (stereo not drawn) [T, 4-(para-chlorophenyl)-pyrrolidone-(2), reference compound]	-2 evasions	Improvement in the performance (difference between number of evasions in treated and control rats, second sequence of shocks) (dose 0.32, intraperitoneal): -2 evasions
